Among the data in the supplement of paper PMC10849652 are log2 fold change values, retold here.

Sequences of proteins named here, by UniProt entry; tags and fusion partners are left off. A change or cut given only in a name is not applied to a line headed by its entry.
UniProt O15554, whole entry, looked up: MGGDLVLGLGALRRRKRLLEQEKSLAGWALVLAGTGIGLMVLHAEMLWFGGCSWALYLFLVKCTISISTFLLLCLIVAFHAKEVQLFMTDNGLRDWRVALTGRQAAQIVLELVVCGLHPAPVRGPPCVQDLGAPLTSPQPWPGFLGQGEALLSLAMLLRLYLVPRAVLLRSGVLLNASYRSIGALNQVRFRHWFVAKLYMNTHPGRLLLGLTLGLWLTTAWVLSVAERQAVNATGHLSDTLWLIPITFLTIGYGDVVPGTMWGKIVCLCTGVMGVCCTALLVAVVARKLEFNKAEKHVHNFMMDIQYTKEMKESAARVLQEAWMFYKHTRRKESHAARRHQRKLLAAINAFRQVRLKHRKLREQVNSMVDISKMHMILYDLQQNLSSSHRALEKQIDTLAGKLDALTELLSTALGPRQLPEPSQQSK
UniProt Q9H910: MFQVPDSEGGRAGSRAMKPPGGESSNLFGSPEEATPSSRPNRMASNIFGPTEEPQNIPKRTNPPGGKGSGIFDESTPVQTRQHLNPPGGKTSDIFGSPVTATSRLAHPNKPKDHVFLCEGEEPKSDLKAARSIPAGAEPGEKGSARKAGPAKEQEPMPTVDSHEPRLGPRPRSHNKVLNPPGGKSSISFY
UniProt Q9ULH0: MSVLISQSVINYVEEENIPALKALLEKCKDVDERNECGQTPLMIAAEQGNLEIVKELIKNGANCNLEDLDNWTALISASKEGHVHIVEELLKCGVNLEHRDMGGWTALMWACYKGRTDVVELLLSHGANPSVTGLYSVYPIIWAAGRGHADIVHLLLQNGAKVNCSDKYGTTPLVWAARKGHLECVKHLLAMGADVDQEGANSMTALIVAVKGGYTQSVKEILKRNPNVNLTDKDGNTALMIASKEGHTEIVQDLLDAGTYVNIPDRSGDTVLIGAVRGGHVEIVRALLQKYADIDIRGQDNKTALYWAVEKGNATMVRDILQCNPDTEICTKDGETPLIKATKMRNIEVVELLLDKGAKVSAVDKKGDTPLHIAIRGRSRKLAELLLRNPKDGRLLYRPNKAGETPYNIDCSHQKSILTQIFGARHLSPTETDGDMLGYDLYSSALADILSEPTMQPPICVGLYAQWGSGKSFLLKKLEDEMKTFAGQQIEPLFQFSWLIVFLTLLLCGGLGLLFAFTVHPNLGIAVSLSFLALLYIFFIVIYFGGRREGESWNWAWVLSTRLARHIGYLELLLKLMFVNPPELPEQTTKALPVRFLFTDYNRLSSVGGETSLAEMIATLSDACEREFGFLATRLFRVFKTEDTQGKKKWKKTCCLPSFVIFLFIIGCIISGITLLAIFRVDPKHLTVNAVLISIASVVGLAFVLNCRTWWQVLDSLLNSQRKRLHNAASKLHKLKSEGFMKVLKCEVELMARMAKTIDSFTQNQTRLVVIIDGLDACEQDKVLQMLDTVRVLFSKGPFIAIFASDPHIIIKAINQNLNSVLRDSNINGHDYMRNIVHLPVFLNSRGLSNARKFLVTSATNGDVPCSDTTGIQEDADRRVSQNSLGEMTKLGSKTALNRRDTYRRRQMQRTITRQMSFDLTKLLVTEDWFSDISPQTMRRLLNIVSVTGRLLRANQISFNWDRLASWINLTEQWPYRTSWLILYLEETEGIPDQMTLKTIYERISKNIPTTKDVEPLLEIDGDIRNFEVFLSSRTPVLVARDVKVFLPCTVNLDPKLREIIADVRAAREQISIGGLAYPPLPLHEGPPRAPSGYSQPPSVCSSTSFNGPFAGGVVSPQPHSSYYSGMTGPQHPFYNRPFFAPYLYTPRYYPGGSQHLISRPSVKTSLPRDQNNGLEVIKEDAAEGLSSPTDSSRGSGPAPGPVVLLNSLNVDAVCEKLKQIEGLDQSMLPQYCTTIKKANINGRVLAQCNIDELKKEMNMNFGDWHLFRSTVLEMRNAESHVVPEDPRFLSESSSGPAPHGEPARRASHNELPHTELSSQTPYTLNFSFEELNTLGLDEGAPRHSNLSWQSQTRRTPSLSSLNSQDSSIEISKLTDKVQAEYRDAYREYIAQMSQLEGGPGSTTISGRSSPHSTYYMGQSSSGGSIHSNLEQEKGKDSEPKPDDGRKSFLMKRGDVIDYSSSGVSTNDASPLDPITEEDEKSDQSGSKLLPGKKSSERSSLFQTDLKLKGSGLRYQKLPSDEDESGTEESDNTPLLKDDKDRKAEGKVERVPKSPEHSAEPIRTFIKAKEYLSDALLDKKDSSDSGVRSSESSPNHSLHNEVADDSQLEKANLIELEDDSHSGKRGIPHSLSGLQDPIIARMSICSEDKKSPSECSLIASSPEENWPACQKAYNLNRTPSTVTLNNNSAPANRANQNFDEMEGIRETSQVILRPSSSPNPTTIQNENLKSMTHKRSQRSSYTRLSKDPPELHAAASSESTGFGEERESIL
UniProt Q9BVA0, whole entry, looked up: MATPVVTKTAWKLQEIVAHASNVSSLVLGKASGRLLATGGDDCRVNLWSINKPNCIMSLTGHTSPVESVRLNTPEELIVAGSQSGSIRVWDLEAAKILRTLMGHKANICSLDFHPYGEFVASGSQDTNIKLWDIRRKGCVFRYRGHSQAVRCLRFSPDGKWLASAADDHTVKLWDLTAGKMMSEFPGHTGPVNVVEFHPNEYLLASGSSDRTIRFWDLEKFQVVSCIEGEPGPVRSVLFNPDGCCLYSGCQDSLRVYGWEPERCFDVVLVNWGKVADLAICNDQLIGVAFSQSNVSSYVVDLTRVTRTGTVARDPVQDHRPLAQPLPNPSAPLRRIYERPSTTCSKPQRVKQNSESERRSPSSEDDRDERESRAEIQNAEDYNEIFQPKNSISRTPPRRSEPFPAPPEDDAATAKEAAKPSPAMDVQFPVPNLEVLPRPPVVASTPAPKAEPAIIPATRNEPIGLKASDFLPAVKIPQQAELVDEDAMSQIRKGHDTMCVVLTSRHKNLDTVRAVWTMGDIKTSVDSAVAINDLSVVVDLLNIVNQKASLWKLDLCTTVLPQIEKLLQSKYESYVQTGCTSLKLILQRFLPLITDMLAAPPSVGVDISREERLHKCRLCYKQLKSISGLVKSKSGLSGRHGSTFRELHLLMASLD
UniProt Q8IY47: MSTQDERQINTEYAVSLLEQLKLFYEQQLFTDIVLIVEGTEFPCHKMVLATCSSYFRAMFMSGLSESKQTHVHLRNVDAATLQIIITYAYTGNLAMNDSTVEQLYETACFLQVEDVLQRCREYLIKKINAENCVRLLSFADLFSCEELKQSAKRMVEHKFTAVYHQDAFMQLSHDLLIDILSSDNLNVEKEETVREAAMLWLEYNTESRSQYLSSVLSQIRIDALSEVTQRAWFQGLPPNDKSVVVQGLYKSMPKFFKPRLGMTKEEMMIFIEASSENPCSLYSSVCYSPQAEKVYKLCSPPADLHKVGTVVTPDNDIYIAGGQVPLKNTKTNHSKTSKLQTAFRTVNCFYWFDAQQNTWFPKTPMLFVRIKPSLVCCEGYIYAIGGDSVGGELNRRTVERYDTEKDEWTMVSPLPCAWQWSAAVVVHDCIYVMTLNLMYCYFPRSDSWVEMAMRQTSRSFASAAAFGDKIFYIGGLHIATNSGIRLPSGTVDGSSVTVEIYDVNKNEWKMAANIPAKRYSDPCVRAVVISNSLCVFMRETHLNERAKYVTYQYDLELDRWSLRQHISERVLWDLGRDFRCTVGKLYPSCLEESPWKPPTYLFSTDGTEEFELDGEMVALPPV
UniProt O00139: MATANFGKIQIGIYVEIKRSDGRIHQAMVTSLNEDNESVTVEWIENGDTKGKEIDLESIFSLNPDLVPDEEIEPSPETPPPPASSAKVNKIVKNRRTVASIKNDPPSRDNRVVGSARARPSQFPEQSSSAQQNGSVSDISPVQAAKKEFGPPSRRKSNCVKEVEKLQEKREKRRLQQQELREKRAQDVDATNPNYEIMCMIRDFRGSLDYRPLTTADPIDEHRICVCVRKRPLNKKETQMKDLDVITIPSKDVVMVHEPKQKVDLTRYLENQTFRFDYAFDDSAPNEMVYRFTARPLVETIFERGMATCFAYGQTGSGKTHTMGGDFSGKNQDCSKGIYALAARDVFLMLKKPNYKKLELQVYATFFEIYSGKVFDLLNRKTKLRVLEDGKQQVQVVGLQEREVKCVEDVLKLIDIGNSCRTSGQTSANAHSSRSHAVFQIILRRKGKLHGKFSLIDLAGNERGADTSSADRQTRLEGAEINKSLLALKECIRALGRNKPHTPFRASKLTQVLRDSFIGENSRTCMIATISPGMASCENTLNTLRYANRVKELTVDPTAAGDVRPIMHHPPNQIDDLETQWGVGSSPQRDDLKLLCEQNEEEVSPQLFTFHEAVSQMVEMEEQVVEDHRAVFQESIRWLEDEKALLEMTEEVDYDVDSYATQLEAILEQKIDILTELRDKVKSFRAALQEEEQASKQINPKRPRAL
UniProt Q8IZA0: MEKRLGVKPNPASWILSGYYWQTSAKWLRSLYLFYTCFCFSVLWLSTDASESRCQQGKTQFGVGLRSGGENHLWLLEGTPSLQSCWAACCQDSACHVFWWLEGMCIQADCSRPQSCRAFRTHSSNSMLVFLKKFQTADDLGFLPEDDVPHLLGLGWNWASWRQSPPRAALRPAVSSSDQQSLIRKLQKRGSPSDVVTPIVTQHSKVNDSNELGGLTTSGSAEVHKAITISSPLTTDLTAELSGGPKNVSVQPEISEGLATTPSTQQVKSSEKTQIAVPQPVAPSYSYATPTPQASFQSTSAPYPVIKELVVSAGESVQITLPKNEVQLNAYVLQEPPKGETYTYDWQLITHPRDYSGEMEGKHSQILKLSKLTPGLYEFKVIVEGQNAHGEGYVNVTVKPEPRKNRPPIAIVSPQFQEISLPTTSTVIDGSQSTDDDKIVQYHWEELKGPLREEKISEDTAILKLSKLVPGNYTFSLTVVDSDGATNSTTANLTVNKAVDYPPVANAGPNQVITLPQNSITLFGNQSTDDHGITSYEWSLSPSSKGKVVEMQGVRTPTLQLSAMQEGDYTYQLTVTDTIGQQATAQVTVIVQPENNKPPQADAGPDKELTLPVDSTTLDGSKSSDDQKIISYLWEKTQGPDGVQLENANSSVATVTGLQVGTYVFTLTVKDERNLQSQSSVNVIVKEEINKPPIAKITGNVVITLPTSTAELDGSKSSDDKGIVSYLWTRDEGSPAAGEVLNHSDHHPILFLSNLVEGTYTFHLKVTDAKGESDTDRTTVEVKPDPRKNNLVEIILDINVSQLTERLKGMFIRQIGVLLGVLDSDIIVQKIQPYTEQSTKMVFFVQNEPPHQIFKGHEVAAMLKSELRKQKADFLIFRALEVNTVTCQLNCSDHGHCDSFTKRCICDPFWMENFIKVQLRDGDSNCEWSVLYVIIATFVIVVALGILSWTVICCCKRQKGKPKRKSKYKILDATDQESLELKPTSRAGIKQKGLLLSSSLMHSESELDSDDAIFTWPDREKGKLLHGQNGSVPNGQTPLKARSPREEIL
UniProt Q9P206: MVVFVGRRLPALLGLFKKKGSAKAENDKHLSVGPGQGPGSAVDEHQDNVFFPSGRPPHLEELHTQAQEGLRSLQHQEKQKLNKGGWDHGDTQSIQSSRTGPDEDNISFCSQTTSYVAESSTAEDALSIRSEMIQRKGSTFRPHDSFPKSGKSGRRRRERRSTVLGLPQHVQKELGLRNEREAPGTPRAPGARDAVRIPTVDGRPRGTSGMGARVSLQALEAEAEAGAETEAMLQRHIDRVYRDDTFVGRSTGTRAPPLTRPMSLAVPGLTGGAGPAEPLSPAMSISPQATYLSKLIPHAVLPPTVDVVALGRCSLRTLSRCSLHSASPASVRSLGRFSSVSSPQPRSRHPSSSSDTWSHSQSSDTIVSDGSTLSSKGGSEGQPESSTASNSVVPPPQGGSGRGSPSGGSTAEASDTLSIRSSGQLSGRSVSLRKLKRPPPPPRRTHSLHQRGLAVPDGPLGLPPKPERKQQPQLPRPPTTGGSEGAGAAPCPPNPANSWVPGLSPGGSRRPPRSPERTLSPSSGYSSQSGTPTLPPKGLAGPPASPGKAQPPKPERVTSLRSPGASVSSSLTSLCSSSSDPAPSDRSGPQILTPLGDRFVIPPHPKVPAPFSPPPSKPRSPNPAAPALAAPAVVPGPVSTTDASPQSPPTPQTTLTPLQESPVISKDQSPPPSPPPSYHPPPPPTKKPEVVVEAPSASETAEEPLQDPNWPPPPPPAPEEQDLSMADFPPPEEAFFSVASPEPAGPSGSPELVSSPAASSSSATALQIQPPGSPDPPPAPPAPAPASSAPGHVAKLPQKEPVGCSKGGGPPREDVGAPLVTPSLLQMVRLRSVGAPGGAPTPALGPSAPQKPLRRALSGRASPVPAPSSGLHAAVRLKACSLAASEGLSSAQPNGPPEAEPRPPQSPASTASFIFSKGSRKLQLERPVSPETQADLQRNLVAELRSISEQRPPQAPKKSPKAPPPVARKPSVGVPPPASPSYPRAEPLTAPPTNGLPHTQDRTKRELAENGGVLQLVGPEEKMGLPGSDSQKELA

The list shows a part of the results.

Common to all, as to experiment: log2 fold change, soluble protein after heating vs DMSO (PISA); higher = thermal stabilisation; K562 cells, 10 uM, 30 min; active = over 0.2 and 3.5 SD of the protein, either way, in both replicates (recomputed)
Compound in one test: CN1CCN(CCOc2cc(OC3CCOCC3)c3c(Nc4c(Cl)ccc5c4OCO5)ncnc3c2)CC1 [saracatinib]
In outline: (§1)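 Soluble protein was defined as the supernatant after 21,000xg for 90 min. It came from K562 cells at 2×10^6 cells/mL given 10 μM compound for 30 min, heated in aliquots for 3 min across 48°C-58°C, pooled, and extracted in PBS with 0.5% NP-40 at 4°C, and was quantified by TMTpro 16plex LC-MS/MS with equalised channel sums. Thermal stability against control samples, from duplicates, is reported as log2 fold change.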

Compound in another test: CN1CCN(c2nc(C3=C(c4c[nH]c5ccccc45)C(=O)NC3=O)c3ccccc3n2)CC1 [sotrastaurin]
In outline: as §1

Compound in another test: CN1CC[C@H](c2c(O)cc(O)c3c(=O)cc(-c4ccccc4Cl)oc23)[C@H](O)C1 [alvocidib]
In a few lines:
as §1

Compound in the next test: CN1CCc2c(c3ccccc3n2Cc2ccc(C(=O)NO)cc2)C1 [Tubastatin A]
In a few lines:
as §1

Compound in test [1]: CNC(=O)C1=CC=CC=C1NC2=NC(=NC=C2Cl)NC3=C(C=C(C=C3)N4CCOCC4)OC
In outline: as §1

Compound in the next test: CNC(=O)c1ccc(Nc2ncc(C(F)(F)F)c(NCc3nccnc3N(C)S(C)(=O)=O)n2)cc1 [defactinib]
In outline: as §1

Compound in a further test: CNCc1ccc(-c2[nH]c3cc(F)cc4c3c2CCNC4=O)cc1 [rucaparib]
In outline: as §1

Compound in test [2]: CNc1nc(-c2ccc3c(N)n[nH]c3c2)cc(N2C[C@@H](C(=O)NC3CCCCC3)CC[C@H]2C)n1
In a few lines: as §1

Compound in a further test: COC(=O)N[C@@H](C)CNc1nccc(-c2cn(C(C)C)nc2-c2cc(Cl)cc(NS(C)(=O)=O)c2F)n1 [encorafenib]
In a few lines: as §1

Compound in test [3]: COC(=O)[C@H](CCSC)NC(=O)C1=C(C=C(C=C1)NC[C@H](CS)N)C2=CC=CC=C2
In a few lines:
as §1

Consider KBTBD4 isoform 2 (UniProt Q9NVX7), for which the log2 fold change with saracatinib is inactive: 0.042; with sotrastaurin, inactive: -0.023; with alvocidib, inactive: -0.054; in the test with Tubastatin A, inactive: -0.083; in test [1] it was inactive: -0.062; in the test with defactinib, inactive: 0.111. Moreover, the log2 fold change with rucaparib is inactive: 0.132; in test [2] it was inactive: -0.129; with encorafenib, inactive: -0.076; in test [3], inactive: 0.01.
Take KHSRP (UniProt Q92945): the log2 fold change with saracatinib was inactive: 0.015; in the test with sotrastaurin, inactive: 0.05; with alvocidib it was inactive: 0.01; with Tubastatin A, inactive: -0.037; in [1], inactive: 0.001; in the test with defactinib it was inactive: 0. Moreover, the log2 fold change with rucaparib is inactive: -0.048; in [2], inactive: -0.051; with encorafenib it was inactive: -0.037; in test [3] it was inactive: 0.024.
For the target KCNN4 (UniProt O15554), the log2 fold change was inactive: 0.015 with saracatinib; inactive: -0.021 with sotrastaurin; inactive: 0.049 in the test with alvocidib; inactive: -0.117 with Tubastatin A; inactive: 0.004 in [1]; inactive: 0 in the test with defactinib. The log2 fold change is inactive: 0.041 with rucaparib, inactive: -0.125 in test [2], inactive: 0.061 in the test with encorafenib and inactive: 0.014 in [3].
As for JPT2 isoform 3 (UniProt Q9H910), the log2 fold change was inactive: 0.002 in the test with saracatinib; inactive: 0.02 in the test with sotrastaurin; inactive: 0 with alvocidib; inactive: -0.015 with Tubastatin A; inactive: -0.031 in test [1]; inactive: -0.008 with defactinib. The log2 fold change with rucaparib is inactive: -0.003; in test [2], inactive: -0.019; with encorafenib, inactive: -0.024; in test [3], inactive: 0.063.
Turning to KNSTRN (UniProt Q9Y448), the log2 fold change in the test with saracatinib is inactive: -0.03; in the test with sotrastaurin it was inactive: -0.156; with alvocidib, inactive: 0.037; in the test with Tubastatin A, inactive: 0.065; in test [1], inactive: -0.014; with defactinib, inactive: 0.015. Also, the log2 fold change with rucaparib is inactive: 0.171; in test [2], inactive: 0.056; with encorafenib, inactive: 0.086; in [3], inactive: -0.153.
In the case of KARS1 (UniProt Q15046), the log2 fold change is inactive: -0.017 with saracatinib; inactive: 0.026 in the test with sotrastaurin; inactive: 0.139 with alvocidib; inactive: 0 with Tubastatin A; inactive: 0.003 in test [1]; inactive: 0.144 in the test with defactinib. In addition, the log2 fold change is inactive: 0.267 in the test with rucaparib, inactive: -0.018 in test [2], inactive: 0.051 in the test with encorafenib and inactive: 0.033 in [3].
As to IWS1 (UniProt Q96ST2), the log2 fold change with saracatinib was inactive: -0.042; in the test with sotrastaurin it was inactive: 0.021; with alvocidib it was active: 0.336; with Tubastatin A it was inactive: 0.04; in [1] it was inactive: -0.054; with defactinib, inactive: 0.035. In addition, the log2 fold change is inactive: 0.032 with rucaparib, inactive: -0.034 in test [2], inactive: -0.1 with encorafenib and inactive: -0.127 in test [3].
Turning to KIDINS220 (UniProt Q9ULH0), the log2 fold change with saracatinib was inactive: 0.02; in the test with sotrastaurin, inactive: -0.031; with alvocidib, inactive: -0.032; with Tubastatin A, inactive: 0.001; in test [1], inactive: -0.009; in the test with defactinib, inactive: -0.016. Moreover, the log2 fold change with rucaparib was inactive: 0.047; in test [2], inactive: -0.021; with encorafenib, inactive: 0.008; in test [3] it was inactive: -0.002.
For the target KATNB1 (UniProt Q9BVA0), the log2 fold change with saracatinib is inactive: 0.002; with sotrastaurin, inactive: -0.004; with alvocidib, inactive: 0.009; in the test with Tubastatin A, inactive: -0.045; in test [1], inactive: -0.016; in the test with defactinib it was inactive: -0.077. Besides, the log2 fold change was inactive: -0.002 with rucaparib, inactive: -0.03 in [2], inactive: 0.083 with encorafenib and inactive: 0.042 in test [3].
As for KDSR (UniProt Q06136), the log2 fold change is inactive: 0.149 with saracatinib; inactive: -0.006 with sotrastaurin; inactive: -0.028 with alvocidib; inactive: -0.003 with Tubastatin A; inactive: -0.027 in [1]; inactive: -0.004 with defactinib. In addition, the log2 fold change in the test with rucaparib was inactive: -0.017; in test [2] it was inactive: 0.005; in the test with encorafenib, inactive: 0.005; in test [3], inactive: -0.018.
On to KBTBD2 (UniProt Q8IY47), for which the log2 fold change with saracatinib is inactive: 0.01; with sotrastaurin it was inactive: 0.026; with alvocidib it was inactive: -0.123; with Tubastatin A it was inactive: 0.078; in [1], inactive: -0.039; with defactinib, inactive: -0.064. Also, the log2 fold change was inactive: 0 in the test with rucaparib, inactive: 0.015 in [2], inactive: 0.014 in the test with encorafenib and inactive: 0.007 in test [3].
Regarding KIF2A isoform 4 (UniProt O00139), the log2 fold change was inactive: -0.068 with saracatinib; inactive: -0.042 with sotrastaurin; inactive: 0.049 in the test with alvocidib; inactive: 0 with Tubastatin A; inactive: -0.039 in [1]; inactive: 0.131 with defactinib. For the same target, the log2 fold change was inactive: 0.228 with rucaparib, inactive: 0.067 in test [2], inactive: 0.112 with encorafenib and inactive: 0.009 in [3].
For KIAA0319L (UniProt Q8IZA0), the log2 fold change in the test with saracatinib was inactive: 0.014; with sotrastaurin it was inactive: 0.054; in the test with alvocidib, inactive: -0.018; in the test with Tubastatin A, inactive: -0.018; in [1], inactive: 0.01; in the test with defactinib it was inactive: -0.024. Besides, the log2 fold change with rucaparib was inactive: -0.011; in test [2], inactive: -0.027; with encorafenib it was inactive: -0.029; in test [3] it was inactive: 0.004.
Turning to KIAA1522 isoform 2 (UniProt Q9P206), the log2 fold change was inactive: 0.002 in the test with saracatinib; inactive: -0.112 in the test with sotrastaurin; inactive: -0.039 with alvocidib; inactive: 0.165 in the test with Tubastatin A; inactive: -0.009 in test [1]; inactive: 0.092 in the test with defactinib. Besides, the log2 fold change in the test with rucaparib is inactive: 0.157; in test [2], inactive: -0.082; with encorafenib, inactive: 0.033; in [3] it was inactive: 0.003.
For JPT1 (UniProt Q9UK76), the log2 fold change with saracatinib was inactive: 0.031; in the test with sotrastaurin it was inactive: 0.031; with alvocidib, inactive: -0.015; with Tubastatin A, inactive: 0.015; in test [1], inactive: -0.044; with defactinib, inactive: -0.023. Also, the log2 fold change with rucaparib is inactive: 0.003; in test [2], inactive: 0.013; with encorafenib, inactive: -0.006; in [3], inactive: 0.019.
